Laboratory results reported in PubChem BioAssay AID493014 (National Center for Advancing Translational Sciences (NCATS), 2011).
The other results are listed elsewhere or left out. The main result of the screen is listed elsewhere. These columns were measured beside it and carry no call. Compounds called inactive in the main read-out are mostly missing here. Potencies come from curve fits of mixed quality, noted in brackets.

Assay: qHTS Assay to Find Inhibitors of Chronic Active B-Cell Receptor Signaling
Details: ABC-DLBCL IkBa-CBG/CBR reporter, luminescence ratio (green luciferase fused to IkBa over red control in TMD8 lymphoma cells), 4 h
Procedure, shortened: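 Cell line TMD8 (human ABC DLBCL), stably expressing tet-inducible CBG68-IkBa fusion and CBR; IMDM/0.5% FBS; cpd up to 46 uM; dox induction, 4 h, 37C/5% CO2; dual luminescence; green/red ratio; MG132 control.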

[1] = measured here: CBR red luminescence, cell number
[2] = measured here: IkBa-CBG green luminescence

SMILES | AC50 [1] | AC50 [2]
c1ccc(-n2ncc3c(NCc4ccc5c(c4)OCO5)ncnc32)cc1 | 8.2 µM [falling, partial curve] | 3.66 µM [rising, full curve]
O=C(NCCc1c[nH]c2ccccc12)c1cccnc1 | 7.08 µM [falling, full curve, poor fit] | –
O=c1c(=NNc2ccccc2Cl)c(=O)c2ccccc12 | 6.31 µM [falling, single point] | –
O=C(Nc1cccc(Cl)c1)c1ccc(F)c(S(=O)(=O)NCc2cccs2)c1 | 18.4 µM [falling, single point] | –
Cc1ccccc1C(=O)Nc1ccc(N(C)C)c2ccccc12 | 35.5 µM [rising, single point] | –
COc1ccc(OC)c(NC(=O)CCCCCn2nnc3ccccc3c2=O)c1 | 14.1 µM [rising, partial curve] | –
O=C(CCc1nc2ccccc2[nH]c1=O)OCc1ccc(S(=O)(=O)N2CCOCC2)cc1 | 6.51 µM [falling, single point] | –
Cc1ccc(NC(=O)CN(C)S(=O)(=O)c2cccs2)cc1F | 2.51 µM [rising, full curve, poor fit] | –
COc1cc(OC)c(C(=O)NCCCn2ccnc2)cc1OC | 35.5 µM [rising, partial curve, poor fit] | –
Cc1c(C(=O)N2CCc3ccccc32)oc2c1C(=O)CC(C)(C)C2 | 2.91 µM [rising, single point] | –
CCN(CC)C(=O)CN(c1cccc(Br)c1)S(C)(=O)=O | 35.5 µM [rising, single point] | –
N#CCc1cnc2ccccc2n1 | 3.16 µM [falling, partial curve, poor fit] | –
CC(NC(=O)c1nn(C)c(=O)c2ccccc12)c1ccc(F)cc1 (centres undefined) | 23.1 µM [rising, partial curve] | –
Cc1ccc(-c2nc3ccccc3s2)cc1NC(=S)NC(=O)c1ccccc1 | 0.316 µM [rising, full curve] | –
Cc1ccc2nc(NC(=O)CSCC(=O)OCC(=O)c3ccc(Br)cc3)sc2c1 | 2.51 µM [falling, full curve, poor fit] | –
C=CCN(c1ccccc1C(=O)O)S(=O)(=O)c1ccc(C)cc1 | 12.6 µM [falling, single point] | –
Cc1cc(CNC(=O)c2cc(Br)ccc2Cl)nn1C | 4.11 µM [rising, full curve, poor fit] | –
CN(CC(=O)Nc1cccc(F)c1)C(=O)c1cccnc1Sc1ccc(Cl)cc1 | 11.6 µM [falling, partial curve, poor fit] | –
COc1ccc2c(CC(=O)Nc3nnc(C4CC4)s3)coc2c1 | 1.64 µM [falling, partial curve, poor fit] | –
Cc1ccc(/C=C/C(=O)NC2CCS(=O)(=O)C2)cc1 (centres undefined) | 0.282 µM [rising, full curve, poor fit] | –
CCOc1ccc(C(=O)CCN2CCCCCC2)cc1 | 17.8 µM [falling, single point] | –
O=C(/C=C/c1cccc(O)c1)c1ccc(N2CCOCC2)cc1 | 17.8 µM [falling, partial curve, poor fit] | –

Quoted at random: four entries already listed.
SMILES | AC50 [1] | AC50 [2]
O=C(/C=C/c1cccc(O)c1)c1ccc(N2CCOCC2)cc1 | 17.8 µM [falling, partial curve, poor fit] | –
Cc1ccc(/C=C/C(=O)NC2CCS(=O)(=O)C2)cc1 (centres undefined) | 0.282 µM [rising, full curve, poor fit] | –
CCN(CC)C(=O)CN(c1cccc(Br)c1)S(C)(=O)=O | 35.5 µM [rising, single point] | –
COc1cc(OC)c(C(=O)NCCCn2ccnc2)cc1OC | 35.5 µM [rising, partial curve, poor fit] | –

Additional records follow.

SMILES | AC50 [1] | AC50 [2]
Cc1[nH]n(CCC#N)c(=O)c1CC(=O)N1CCN(c2ccccc2)CC1 | 14.1 µM [rising, single point] | –
COc1ccc(NC(=O)c2ccc(-c3nn(C)c(=O)c4ccccc34)cc2)cc1C(N)=O | 0.251 µM [rising, full curve, poor fit] | –
O=C(CCCCCBr)N1CCC(CC2CC(c3cccc(Br)c3)=NO2)(C(=O)NCC2CCCCC2)CC1 (centres undefined) | 11.2 µM [falling, partial curve] | –
CCOC(=O)C(CC)Sc1nc2c(c(=O)[nH]c(=O)n2C)n1CCc1ccccc1 (centres undefined) | 5.01 µM [falling, partial curve, poor fit] | –
COc1cccc(NC(=O)c2ccc(NC(=O)C3CC(=O)OC34CCCCC4)cc2)c1 (centres undefined) | 20 µM [falling, single point] | 14.1 µM [rising, partial curve, poor fit]
Cc1cc(S(=O)(=O)NCCN2CCOCC2)ccc1Cl | 1.41 µM [rising, partial curve] | –
Cc1noc(C)c1CSCC(=O)Nc1cc(Cl)ccc1N1CCCCC1 | 5.8 µM [falling, partial curve] | –
O=C(CCl)Nc1ccccc1Sc1ccc(Cl)cc1 | 10.3 µM [falling, partial curve, poor fit] | –
COCCN(Cc1cc2ccccc2[nH]c1=O)C(=O)c1ccccc1OC | 29.1 µM [rising, single point] | –
O=C(CSc1c2c(nc3ccc(Cl)cc13)CCCC2)NCCCN1CCOCC1 | 25.1 µM [falling, single point] | –
CCCCn1c(SCC(=O)Nc2cc(C(F)(F)F)cc(C(F)(F)F)c2)nnc1C(CC)N(C)C (centres undefined) | 5.8 µM [falling, partial curve, poor fit] | –
CCc1ccc(N(CC(=O)Nc2sc3c(c2C(=O)OC)CCCC3)S(C)(=O)=O)cc1 | 29.1 µM [rising, single point] | –
O=S(=O)(NCC1CCCO1)c1cc(Cl)ccc1Cl (centres undefined) | 0.116 µM [falling, full curve, poor fit] | –
COc1ccc(/C=N/NC(=O)c2cccc(Br)c2)cc1CN1CCOCC1 | 10 µM [falling, partial curve] | –
Cc1ccc(NC(=O)c2cncc(Br)c2)c([N+](=O)[O-])c1 | 0.058 µM [rising, full curve, poor fit] | –
Cc1cc(C)c(C#N)c(SCc2ccccc2F)n1 | 14.1 µM [rising, partial curve, poor fit] | –
O=C(O)C1CC(=O)N(C2CCCCCC2)C1 (centres undefined) | 29.1 µM [rising, single point] | –
Nc1ncnc(Nc2cccc(C(F)(F)F)c2)n1 | 3.16 µM [rising, partial curve] | –
CC(C)CN(C(=O)c1ccco1)C1CCS(=O)(=O)C1 (centres undefined) | 9.2 µM [falling, partial curve] | –
COc1cccc2sc3cc(NCc4ccc5c(c4)OCO5)ccc3c(=O)c12 | 8.2 µM [falling, partial curve, poor fit] | –
COc1ccc(/C=C\c2nc(=O)c3ccccc3o2)cc1 | 0.708 µM [falling, full curve] | –
Cc1ccc(-c2nnn(CC(=O)N(Cc3ccco3)C(C(=O)NC(C)(C)C)c3cccs3)n2)o1 (centres undefined) | 6.51 µM [falling, single point] | –

SMILES | AC50 [1] | AC50 [2]
CCOc1cc(CN2CCCC(CNC(=O)c3ccc(F)cc3)C2)ccc1OC (centres undefined) | 15.8 µM [rising, partial curve, poor fit] | –
Cc1cc(NC(=O)C(Cl)c2ccccc2)no1 (centres undefined) | 4.47 µM [falling, partial curve, poor fit] | –
COC(=O)c1sccc1NC(=O)/C=C/c1c(Cl)cccc1Cl | 29.1 µM [falling, single point] | –
O=C(O)c1ccc(COc2ccc3ccccc3c2/C=C2/NC(=O)N(c3ccccc3)C2=O)cc1 | 2.51 µM [falling, full curve] | –
COc1cccc(CNc2nc(-c3cccnc3)nc3ccccc23)c1 | 35.5 µM [falling, single point] | –
O=C(O)CSc1nnc(NC(=O)CN2CCOCC2)s1 | 35.5 µM [rising, single point] | –
CCOc1ccccc1N1CCN(C(=O)c2ccncc2)CC1 | 0.00517 µM [rising, full curve, poor fit] | –
COc1ccc(OC)c(Nc2nc3ccc(C)cc3n3cnnc23)c1 | 15.8 µM [rising, partial curve, poor fit] | –
O=C(CCc1ccccc1)N/N=C/c1cccc(O)c1 | 3.16 µM [rising, single point] | –
CCCCS(=O)(=O)N1CN(S(=O)(=O)CCCC)C2NC(=O)NC21 (centres undefined) | 35.5 µM [falling, single point] | –
O=C(c1cc(-c2ccc(Br)cc2)n[nH]1)N1CCN(C(=O)c2ccccc2Br)CC1 | 35.5 µM [falling, single point] | –
Cc1ccc([N+](=O)[O-])cc1NC(=O)Nc1ccc(S(N)(=O)=O)cc1 | 0.178 µM [rising, full curve, poor fit] | –
O=C(OCc1c(-c2ccccc2)ncc2ccccc12)c1cccs1 | 29.1 µM [falling, single point] | –
COc1cc(O)cc(O)c1C(=O)/C=C/c1ccccc1 | 35.5 µM [falling, partial curve, poor fit] | –
Cc1ccc(NC(=O)c2ccc3c(c2)CCN3S(C)(=O)=O)cc1C | 35.5 µM [falling, partial curve, poor fit] | –
CCn1c(C)cs/c1=N\C(=S)Nc1ccccc1C | 13 µM [rising, partial curve, poor fit] | –
Cc1ccc(S(=O)(=O)NCC(=O)N2CCC(C)CC2)cc1 | 0.517 µM [falling, full curve, poor fit] | –
O=C(N/N=C/c1cccs1)c1cccnc1 | 35.5 µM [falling, single point] | –
CCc1ccc2oc(=O)cc(CN3CCOCC3)c2c1 | 2.91 µM [rising, partial curve, poor fit] | –
CCCCCCSc1nc2c(c(=O)[nH]c(=O)n2C)n1C | 32.6 µM [rising, single point] | –
COc1ccc(CNC(=O)CSCc2c(F)cccc2Cl)cc1 | 7.08 µM [rising, full curve, poor fit] | –
COc1ccc(NC(=O)c2ccco2)c([N+](=O)[O-])c1 | 29.1 µM [rising, partial curve, poor fit] | 18.4 µM [falling, single point]
